Results deposited as PubChem BioAssay AID504791 (Drosophila RNAi Screening Center, 2011)
In all, the deposit lists about 23,000 reagents; shown is an unselected part of those with a known target gene and a result. Over the whole deposit, 199 (0.86%) got an active call. 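Plate-scaled ratios behind the calls are not deposited; printed light signals are raw; many rows marked increased or decreased are still called inactive.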 Unmarked entries are inactive. Names joined by + are all predicted targets of the reagent.

- Purpose: 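Factors in Argonaute-based small RNA production and activity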 (primary screen)
- Cell system: Drosophila S2-derived reporter cells
- Reagent: long dsRNA against Drosophila genes, about 150-250 ng dsRNA per well (siRNA assay); about 80-120 ng (miRNA assay)
- Timing: about 5 days (siRNA assay); about 4 days (miRNA assay)
- Treatment: copper sulfate induction of reporters: 25 µM (siRNA assay); 200 mM stated (miRNA assay), 1-2 days before reading
- Measured: 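Per-well ratio of Renilla over firefly light, expressed relative to that plate's average ratio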
- Direction: siRNA reporter hit score: higher = 3 marks a strong hit with raised ratio; -3 a strong hit with lowered ratio
- Rule for the call: 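First-pass picks had plate-scaled ratios over 1.5 for the siRNA assay, over 1.6 for the miRNA assay, or under 0.6; two distinct dsRNAs had to score alike on retest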

gene knocked down,amplicon,siRNA reporter hit score,stable siRNA reporter change,miRNA reporter change,"stable assay Renilla, run 1 (luminescence)","stable assay firefly, run 1 (luminescence)"
CG13054,DRSC09935,,,,6826,3.09e5
Aduk (Another Drosophila Unc-51-like kinase),DRSC16451,,,,6224,5.27e5
Snp (Snipper),DRSC04524,,,,6020,3.05e5
Snp (Snipper),DRSC21538,,,,10774,5.89e5
polybromo,DRSC14307,,,,6680,2.83e5
CG32655,DRSC18925,,,,5655,2.95e5
CG18368,DRSC06731,,,,6736,3.67e5
CG17648,DRSC00508,,,,8043,4.38e5
Inx2 (Innexin 2),DRSC18783,,,,7650,3.68e5
Or59a (Odorant receptor 59a),DRSC04631,,,,6714,3.83e5
wit (wishful thinking),DRSC08741,,,,8080,3.74e5
beat-Ic (beaten path Ic),DRSC01524,,,,5860,3.50e5
beat-Ic (beaten path Ic),DRSC03491,,,,7387,3.19e5
Mst36Fa (Male-specific transcript 36Fa),DRSC21564,,,,9211,6.32e5
"GluRS-m (Glutamyl-tRNA synthetase, mitochondrial)",DRSC10431,,,,7683,3.30e5
ccb (central complex broad),DRSC20501,,,,6771,3.86e5
Ctr1A (Copper transporter 1A),DRSC18336,,,,3812,2.35e5
Ipo9 (Importin 9),DRSC16813,,,,6863,4.12e5
CG1927,DRSC08146,,,,8152,2.96e5
ttm3 (tiny tim 3),DRSC03736,,,,7695,4.84e5
CG10581,DRSC11623,,,,7851,4.26e5
Grip91 (Gamma-tubulin ring protein 91),DRSC20249,,,,9851,6.68e5
Arts + Apl,DRSC10349,,,,9037,5.33e5
Fur1 (Furin 1),DRSC13707,,,,5487,4.32e5
Fur1 (Furin 1),DRSC16676,,reporter ratio lowered past the hit cutoff,,7495,6.77e5
CG33096,DRSC14440,,,,8734,3.71e5
CG7568,DRSC16259,,,,5763,3.34e5
CG11191,DRSC06056,,,,7283,2.50e5
CG11191,DRSC23224,,,,4112,2.34e5
Hsc70-4 (Heat shock protein 70 cognate 4),DRSC16711,3 (active),reporter ratio lowered past the hit cutoff,,7641,7.35e5
Hsc70-4 (Heat shock protein 70 cognate 4),DRSC29729,,,reporter ratio raised past the hit cutoff (active),,
pod1 (pod1 coronin),DRSC18362,,,,7563,4.12e5
CG7668,DRSC10901,,,,8182,3.33e5
rho-7 (rhomboid-7),DRSC07304,,,,4596,2.69e5
Shal (Shaker cognate l),DRSC09625,,,,4787,3.87e5
Shal (Shaker cognate l),DRSC11283,,,,6334,3.90e5
sinu (sinuous),DRSC09752,,,,4346,3.74e5
mahj (mahjong),DRSC04053,,,,91643,1.60e6
CG11458,DRSC11666,,,,7394,3.64e5
Hcs (Holocarboxylase synthetase),DRSC12070,,,,6510,4.77e5
Hcs (Holocarboxylase synthetase),DRSC12256,,,,6898,3.10e5
CG13426,DRSC06388,,,,6450,3.63e5
CG7794,DRSC16313,,,,7875,3.11e5
Cpr47Ec (Cuticular protein 47Ec),DRSC07332,,,,6594,4.75e5

Records above called active, once more:
gene knocked down,amplicon,siRNA reporter hit score,stable siRNA reporter change,miRNA reporter change,"stable assay Renilla, run 1 (luminescence)","stable assay firefly, run 1 (luminescence)"
Hsc70-4 (Heat shock protein 70 cognate 4),DRSC16711,3 (active),reporter ratio lowered past the hit cutoff,,7641,7.35e5
Hsc70-4 (Heat shock protein 70 cognate 4),DRSC29729,,,reporter ratio raised past the hit cutoff (active),,

Further results:
gene knocked down,amplicon,siRNA reporter hit score,stable siRNA reporter change,miRNA reporter change,"stable assay Renilla, run 1 (luminescence)","stable assay firefly, run 1 (luminescence)"
Snx27 (Sorting nexin 27),DRSC17786,,,,5954,3.47e5
Snx27 (Sorting nexin 27),DRSC18282,,,,5407,4.10e5
Snx27 (Sorting nexin 27),DRSC18284,,,,5711,3.48e5
Dll (Distal-less),DRSC04610,,,,6102,5.46e5
CG14147,DRSC10149,,,,5795,3.54e5
CG42568 + DnaJ-60,DRSC04207,,,,5774,2.89e5
CG42568 + DnaJ-60,DRSC04611,,,,1.99e5,1.31e6
CG11456,DRSC11665,,,,9298,3.48e5
Lfg (Lifeguard),DRSC06853,,,reporter ratio raised past the hit cutoff (active),5795,3.00e5
CG14974,DRSC08433,,,,6818,3.68e5
Ubx (Ultrabithorax),DRSC16891,,,,3027,3.05e5
Ih (I[[h]] channel),DRSC07445,,,,7947,3.78e5
CG34230,DRSC05317,,,,7806,3.89e5
CG15611,DRSC06563,,,,11026,3.88e5
CG15611,DRSC06564,,,,6342,3.65e5
CG42496 + Ppcdc,DRSC03886,,,,3676,3.49e5
CHMP2B (Charged multivesicular body protein 2b),DRSC10436,,,,8647,3.78e5
CG6937,DRSC16140,,,,6304,3.57e5
CG1421,DRSC03707,,,,6796,3.21e5
shep (alan shepard),DRSC08748,,,,4359,2.79e5
shep (alan shepard),DRSC09765,,,,6122,3.41e5
shep (alan shepard),DRSC09771,,,,6238,3.25e5
Ir52c (Ionotropic receptor 52c),DRSC21801,,,,10248,5.44e5
Usp14 (Ubiquitin specific protease 14),DRSC02853,,,,8529,4.20e5
Phae1 (Phaedra 1),DRSC02554,,,,6758,4.79e5
Mob2,DRSC09117,,,,4176,3.14e5
Mob2,DRSC09119,,,,3412,2.83e5
Mob2,DRSC09856,,,reporter ratio lowered past the hit cutoff,6895,3.58e5
Mob2,DRSC23274,,,,3620,3.14e5
Gyc89Da (Guanylyl cyclase at 89Da),DRSC15008,,,,6322,4.10e5
unc (uncoordinated),DRSC20511,,,,6055,4.71e5
dpr11 (defective proboscis extension response 11),DRSC12561,,,,6464,3.25e5
dpr11 (defective proboscis extension response 11),DRSC12562,,,,6652,3.96e5
dpr11 (defective proboscis extension response 11),DRSC12563,,,,6175,4.31e5
Rh6 (Rhodopsin 6),DRSC16823,,,,7242,4.75e5
CG32161,DRSC22128,,,,9806,7.69e5
CG9689,DRSC18440,,,,6443,3.48e5
CG33631,DRSC12763,,,,5248,3.29e5
CG17618 (retired record) + CG45049,DRSC16163,,,,6510,2.88e5
CG17618 (retired record) + CG45049,DRSC22054,,reporter ratio raised past the hit cutoff,,7512,2.67e5
CG17618 (retired record) + CG45049,DRSC23175,,,,3576,2.44e5
